Results published in paper PMC4465127.
These are yes or no findings as the source states them, for the method shown.

Molecular target: sLET-23^dim-arm (LET-23 extracellular region with six dimerization arm mutations in domain II) (C. elegans) (UniProt P24348)
Assay: AUC; sedimentation equilibrium, without ligand; 1 to 8 μM receptor, 10 mM Hepes pH 8.0, 150 mM NaCl, 20 °C, three speeds; dimer to monomers; both purified

B1: sLET-23^dim-arm (LET-23 extracellular region with six dimerization arm mutations in domain II) (domain or fragment, UniProt P24348 21-819)
chain: FGNSNAQLWKRCVSPQDCLCSGTTNGISRYGTGNILEDLETMYRGCRRVYGNLEITWIEANEIKKWRESTNSTVDPKNEDSPLKSINFFDNLEEIRGSLIIYRANIQKISFPRLRVIYGDEVFHDNALYIHKNDKVHEVVMRELRVIRNGSVTIQDNPKMCYIGDKIDWKELLYDPDVQKVETTNSHQHCYQNGKSMAKCHESCNDKCWGSGDNDCQRVYRSVCPKSCSQCFYSNSTSSYECCDSACLGGCTGHGPKNCIACSKYELDGICIETCPSRKIDAHDTEADVFNPDGRYQNGNHCVKECPPELLIENDVCVRHCSDGHHYDATKDVRECEKCRSSSCPKICTVDGHLTNETLKNLEGCEQIDGHLIIEHAFTYEQLKVLETVKIVSEYITIVQQNFYDLKFLKNLQIIEGRKLHNVRWALAIYQCDDLEELSLNSLKLIKTGAVLIMKNHRLCYVSKIDWSSIITSKGKDNKPSLAIAENRDSKLCETEQRVCDKNCNKRGCWGKEPEDCLECKTWKSVGTCVEKCDTKGFLRNQTSMKCERCSPECETCNGLGELDCLTCRHKTLYNSDFGNRMECVHDCPVSHFPTQKNVCEKCHPTCYDNGCTGPDSNLGYGGCKQCKYAVKYENDTIFCLQSSGMNNVCVENDLPNYYISTYDTEGVIETHCEKCSISCKTCSSAGRNVVQNKCVCKHVEYQPNPSERICMDQCPVNSFMVPDTNNTVCKKCHHECDQNYHCANGQSTGCQKCKNFTVFKGDIAQCVSECPKNLPFSNPANGECLDYDIASRQRKTRM
binding: no binding (tested: 1 to 8 μM)
